No constants are given. Whether binding was seen depends on the method and setting. Binding seen in cells or lysates may run through a third protein.
Key:
F508del-CFTR (human) = F508del-CFTR (human) (UniProt P13569); test: co-IP; lysates of CFBE wt-CFTR and F508del-CFTR cells in PD buffer (50 mM Tris-HCl, 0.1 mM NaCl, 1% NP40, 10% glycerol, pH 7.5), pre-cleared with Protein-G agarose; overnight at 4 °C with anti-CFTR or anti-KLF4; control without antibody; Western blot
[1] = biological target: wt-CFTR (cystic fibrosis transmembrane conductance regulator) (human) (UniProt P13569); test: as above

Chains of the proteins cited; added tags and fusions are not shown. Lines headed by an entry give the natural chain unless they say otherwise; changes in a name come on top. A line that says so, or that is headed by a name, gives the form on record, which may keep a tag or linker.
UniProt P13569: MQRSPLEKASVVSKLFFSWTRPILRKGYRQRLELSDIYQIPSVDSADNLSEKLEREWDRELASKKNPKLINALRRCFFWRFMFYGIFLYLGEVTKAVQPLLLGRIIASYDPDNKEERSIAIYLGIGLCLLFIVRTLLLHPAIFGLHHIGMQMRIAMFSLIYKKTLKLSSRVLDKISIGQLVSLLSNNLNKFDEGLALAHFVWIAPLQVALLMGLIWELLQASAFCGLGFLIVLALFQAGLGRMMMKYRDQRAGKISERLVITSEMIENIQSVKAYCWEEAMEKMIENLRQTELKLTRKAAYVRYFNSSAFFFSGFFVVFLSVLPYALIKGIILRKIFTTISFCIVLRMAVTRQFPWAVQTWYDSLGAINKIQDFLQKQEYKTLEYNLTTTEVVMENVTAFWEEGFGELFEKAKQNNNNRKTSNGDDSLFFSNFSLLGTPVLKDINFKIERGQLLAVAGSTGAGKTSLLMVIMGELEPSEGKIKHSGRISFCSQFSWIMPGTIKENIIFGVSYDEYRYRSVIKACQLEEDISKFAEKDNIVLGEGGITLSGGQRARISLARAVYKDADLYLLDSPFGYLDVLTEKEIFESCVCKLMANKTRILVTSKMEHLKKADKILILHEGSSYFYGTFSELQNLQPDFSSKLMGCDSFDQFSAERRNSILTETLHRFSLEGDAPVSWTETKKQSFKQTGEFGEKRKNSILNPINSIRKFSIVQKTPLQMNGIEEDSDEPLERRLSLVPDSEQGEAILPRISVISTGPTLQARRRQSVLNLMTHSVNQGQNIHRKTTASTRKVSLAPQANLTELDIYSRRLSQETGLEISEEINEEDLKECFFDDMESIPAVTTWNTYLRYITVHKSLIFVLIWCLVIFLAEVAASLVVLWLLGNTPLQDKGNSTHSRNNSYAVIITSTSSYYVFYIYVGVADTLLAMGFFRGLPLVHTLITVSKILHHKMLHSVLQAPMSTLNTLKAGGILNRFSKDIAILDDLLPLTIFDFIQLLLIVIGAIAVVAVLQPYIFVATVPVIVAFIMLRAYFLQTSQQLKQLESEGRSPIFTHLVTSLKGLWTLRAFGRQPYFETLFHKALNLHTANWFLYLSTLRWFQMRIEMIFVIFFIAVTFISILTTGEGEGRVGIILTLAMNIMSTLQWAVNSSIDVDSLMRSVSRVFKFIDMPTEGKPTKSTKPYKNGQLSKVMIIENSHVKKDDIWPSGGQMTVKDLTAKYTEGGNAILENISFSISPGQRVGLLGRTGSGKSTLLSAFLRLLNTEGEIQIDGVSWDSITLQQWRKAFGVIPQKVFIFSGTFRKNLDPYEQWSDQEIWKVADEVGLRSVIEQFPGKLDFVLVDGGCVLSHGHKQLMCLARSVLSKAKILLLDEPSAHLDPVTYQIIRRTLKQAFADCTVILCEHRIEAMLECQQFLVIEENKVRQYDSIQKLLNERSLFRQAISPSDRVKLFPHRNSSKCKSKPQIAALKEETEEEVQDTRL
F508del-CFTR (P13569, form named): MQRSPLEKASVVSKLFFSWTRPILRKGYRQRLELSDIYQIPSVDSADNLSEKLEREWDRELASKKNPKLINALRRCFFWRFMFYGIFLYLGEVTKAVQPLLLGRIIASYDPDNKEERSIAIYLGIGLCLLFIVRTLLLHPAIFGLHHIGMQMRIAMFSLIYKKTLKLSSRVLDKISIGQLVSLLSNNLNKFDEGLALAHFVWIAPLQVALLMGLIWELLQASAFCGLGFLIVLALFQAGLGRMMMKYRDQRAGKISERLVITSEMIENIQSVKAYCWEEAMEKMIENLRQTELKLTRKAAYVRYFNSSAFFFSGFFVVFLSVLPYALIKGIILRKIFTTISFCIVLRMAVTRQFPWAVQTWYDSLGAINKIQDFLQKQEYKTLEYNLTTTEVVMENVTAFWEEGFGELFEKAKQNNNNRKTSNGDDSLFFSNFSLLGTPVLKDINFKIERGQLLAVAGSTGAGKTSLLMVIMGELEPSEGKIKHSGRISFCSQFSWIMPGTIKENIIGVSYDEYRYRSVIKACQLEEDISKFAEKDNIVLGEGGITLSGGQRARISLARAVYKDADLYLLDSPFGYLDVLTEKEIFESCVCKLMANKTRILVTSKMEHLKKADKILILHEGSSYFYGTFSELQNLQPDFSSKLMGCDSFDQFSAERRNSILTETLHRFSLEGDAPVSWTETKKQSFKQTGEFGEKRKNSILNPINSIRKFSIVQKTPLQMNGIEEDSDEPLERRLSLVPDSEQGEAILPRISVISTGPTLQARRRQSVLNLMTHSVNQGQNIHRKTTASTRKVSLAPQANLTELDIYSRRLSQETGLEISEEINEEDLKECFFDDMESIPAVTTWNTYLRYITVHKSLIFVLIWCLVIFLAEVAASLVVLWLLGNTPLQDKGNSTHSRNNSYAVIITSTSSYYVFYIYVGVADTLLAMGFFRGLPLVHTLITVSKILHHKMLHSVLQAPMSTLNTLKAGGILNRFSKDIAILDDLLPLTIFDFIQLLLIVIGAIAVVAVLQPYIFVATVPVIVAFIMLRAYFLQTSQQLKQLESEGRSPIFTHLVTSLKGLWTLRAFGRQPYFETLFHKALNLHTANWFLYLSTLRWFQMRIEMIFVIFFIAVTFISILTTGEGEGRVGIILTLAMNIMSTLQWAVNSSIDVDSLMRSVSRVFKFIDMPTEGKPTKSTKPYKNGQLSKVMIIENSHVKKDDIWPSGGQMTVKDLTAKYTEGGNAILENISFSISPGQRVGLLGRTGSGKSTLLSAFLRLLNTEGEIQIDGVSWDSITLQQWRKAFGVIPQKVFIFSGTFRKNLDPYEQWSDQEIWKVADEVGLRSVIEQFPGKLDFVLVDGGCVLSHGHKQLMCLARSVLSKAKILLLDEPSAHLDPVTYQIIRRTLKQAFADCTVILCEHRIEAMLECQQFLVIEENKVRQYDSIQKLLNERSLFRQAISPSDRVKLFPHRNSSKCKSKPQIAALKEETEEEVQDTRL
UniProt O43474: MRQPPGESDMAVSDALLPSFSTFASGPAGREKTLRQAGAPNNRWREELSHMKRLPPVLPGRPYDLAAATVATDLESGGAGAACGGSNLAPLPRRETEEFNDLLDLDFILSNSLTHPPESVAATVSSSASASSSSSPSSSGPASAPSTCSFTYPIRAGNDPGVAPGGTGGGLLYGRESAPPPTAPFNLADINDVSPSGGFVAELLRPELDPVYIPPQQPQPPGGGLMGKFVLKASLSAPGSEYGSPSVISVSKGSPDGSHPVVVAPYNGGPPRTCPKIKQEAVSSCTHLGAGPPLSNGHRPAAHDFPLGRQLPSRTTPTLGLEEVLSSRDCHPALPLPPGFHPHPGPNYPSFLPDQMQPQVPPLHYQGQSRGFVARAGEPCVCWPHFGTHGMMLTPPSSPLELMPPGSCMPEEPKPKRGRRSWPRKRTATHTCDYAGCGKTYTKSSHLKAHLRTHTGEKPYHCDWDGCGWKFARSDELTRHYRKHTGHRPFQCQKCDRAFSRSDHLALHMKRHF

Krüppel-like factor 4 (from UniProt O43474 1-513)
binding (F508del-CFTR (human)): no binding | binding [1]: no binding

Source: PMC7408019
